Laboratory results reported in the supplement of paper PMC12889115.
The other results are listed elsewhere or left out. Values are raw readings; no control value is given beside them.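 First-pass screen: polymyxin B was added at a level that permeabilizes the Salmonella outer membrane while sparing the inner membrane. DMSO wells, with and without polymyxin B, defined maximum growth. Because plates differed from one another, each plate's data were ranked separately and the compounds with the lowest OD600 were carried forward as hits.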

System: Salmonella enterica serovar Typhimurium SL1344
Assay: bacterial growth OD600 after 18 h with compound and polymyxin B; higher = more bacterial growth (less inhibition)
Conditions: 50 µM, Mueller-Hinton broth

| Compound | bacterial growth OD600 (polymyxin B 1 µg/mL) | bacterial growth OD600 (polymyxin B 0.75 µg/mL) |
| --- | --- | --- |
| COc1ccc(CN2CCN(CC3CCCCC3)C(CCO)C2)cc1OC (stereo unspecified) | 0.94 | – |
| CN(C(=O)c1ccc(OC2CCN(C(=O)C3CC3)CC2)cc1)C1CCCc2ccccc21 (stereo unspecified) | 0.704 | – |
| Cc1ccc(OCCN(C)C(=O)C2CC23CCN(Cc2cccs2)CC3)cc1 (stereo unspecified) | – | 0.635 |
| Cc1ccccc1N1C(=O)CN(C(=O)c2c(-c3ccccc3)noc2C)CC1C (stereo unspecified) | – | 0.853 |
| COc1ccc(OC2CCN(C(C)=O)CC2)c(C(=O)NCc2ccccc2F)c1 | 0.458 | – |
| CN(Cc1ccc(F)cc1)C(=O)C1CCCN(C2CCN(C(=O)C3CC3)CC2)C1 (stereo unspecified) | – | 0.88 |
| O=C(NC1CC1)C1CCCN(C2CCN(C3CCCC3)CC2)C1 (stereo unspecified) | 0.947 | – |
| COc1ccc(C2c3[nH]c4ccccc4c3CCN2C(=O)Cn2[nH]c(=O)ccc2=O)cc1C (stereo unspecified) | 1.06 | – |
| FC(F)(F)c1cccc(N2CCN(C3CCCN(Cc4ccc5nonc5c4)C3)CC2)c1 (stereo unspecified) | 0.024 | – |
| O=C(/C=C/c1ccccc1F)NCC1CC(Cc2cccc(F)c2)=NO1 (stereo unspecified) | – | 0.662 |
| COc1ccccc1CCNC(=O)c1cc(NS(C)(=O)=O)cc2ncn(CCc3ccccc3)c12 | – | 0.769 |
| COc1ccccc1C1CN(Cc2ccoc2)Cc2ccccc2O1 (stereo unspecified) | – | 0.127 |
| CCC1CN(CCNC(=O)Cc2c(F)cc(F)cc2F)Cc2cc(OC)ccc2O1 (stereo unspecified) | – | 0.784 |
| COc1cc(-c2cnnc(NCc3cc(C)no3)n2)cc(OC)c1OC | – | 0.742 |
| O=C(NCCN1Cc2ccccc2OC(c2ccccc2)C1)C1CC=CCC1 (stereo unspecified) | – | 0.7 |
| CN1CCN(Cc2nc(C(c3ccccc3)c3ccccc3)no2)CC1c1ccccc1 (stereo unspecified) | – | 0.079 |

Already shown: six of the compounds above.

| Compound | bacterial growth OD600 (polymyxin B 1 µg/mL) | bacterial growth OD600 (polymyxin B 0.75 µg/mL) |
| --- | --- | --- |
| COc1ccc(CN2CCN(CC3CCCCC3)C(CCO)C2)cc1OC (stereo unspecified) | 0.94 | – |
| CN(C(=O)c1ccc(OC2CCN(C(=O)C3CC3)CC2)cc1)C1CCCc2ccccc21 (stereo unspecified) | 0.704 | – |
| Cc1ccc(OCCN(C)C(=O)C2CC23CCN(Cc2cccs2)CC3)cc1 (stereo unspecified) | – | 0.635 |
| Cc1ccccc1N1C(=O)CN(C(=O)c2c(-c3ccccc3)noc2C)CC1C (stereo unspecified) | – | 0.853 |
| COc1ccc(OC2CCN(C(C)=O)CC2)c(C(=O)NCc2ccccc2F)c1 | 0.458 | – |
| CN(Cc1ccc(F)cc1)C(=O)C1CCCN(C2CCN(C(=O)C3CC3)CC2)C1 (stereo unspecified) | – | 0.88 |

Next compounds:

| Compound | bacterial growth OD600 (polymyxin B 1 µg/mL) | bacterial growth OD600 (polymyxin B 0.75 µg/mL) |
| --- | --- | --- |
| c1cc(N2CCCOCC2)ncc1-c1nc(C2CC2)no1 | – | 0.76 |
| CCS(=O)(=O)N1CCC2(CCCN(Cc3ccc(C(C)C)cc3)C2=O)C1 (stereo unspecified) | 0.89 | – |
| O=C1CC(NCc2nc3ccccc3[nH]2)CN1Cc1ccccc1C(F)(F)F (stereo unspecified) | 0.962 | – |
| Cc1ccccc1CCC1CCCN(C(=O)CCn2cccn2)C1 (stereo unspecified) | – | 0.625 |
| CN(Cc1ccccc1)C(=O)CCC1CCN(C(=O)Nc2ccc3c(c2)OCO3)CC1 | 0.828 | – |
| CCOc1ccc2nc(N3CCCN(Cc4cccc5c4OCO5)CC3)nc(C)c2c1 | – | 0.19 |
| CN(Cc1cccnc1)C(=O)CC(c1ccccc1)c1ccc2c(c1)OCO2 (stereo unspecified) | – | 0.67 |
| O=C(CN1CCC(c2ccccc2)CC1)N1CCCC(CO)(Cc2ccccc2)C1 (stereo unspecified) | 0.736 | – |
| COCCN(Cc1ccccn1)C(Cc1ccccc1)C1CCN(Cc2c(O)cccc2OC)CC1 (stereo unspecified) | – | 0.752 |
| COCCN1C(=O)CC(CC(=O)N2CCCC(C(=O)c3ccccc3)C2)(c2ccccc2OC)C1=O (stereo unspecified) | – | 0.828 |
| Cc1nc(C(=O)N2CCC(n3nccc3NC(=O)C(C)(C)C)CC2)cs1 | 0.919 | – |
| CSc1nccc(-c2cc(Cl)c3c(c2)CC(CNC(=O)Cc2cn4ccsc4n2)O3)n1 (stereo unspecified) | – | 0.788 |
| CCOC(=O)C1(Cc2ccc(F)cc2)CCCN(C(=O)CC(C)C)C1 (stereo unspecified) | 0.801 | – |
| CN1CCC(N(C)C(=O)CC(c2ccccc2)c2ccccc2F)CC1 (stereo unspecified) | – | 0.643 |
| CCc1csc(CNC(=O)c2ccc(NC3CCOC3)nc2)n1 (stereo unspecified) | 0.818 | – |
